Assay results as given in the supplement of paper PMC10849652.
This is one part of the list.

Chains of the proteins cited; added tags and fusions are not shown. Lines headed by an entry give the natural chain unless they say otherwise; changes in a name come on top.
UniProt Q96GZ6: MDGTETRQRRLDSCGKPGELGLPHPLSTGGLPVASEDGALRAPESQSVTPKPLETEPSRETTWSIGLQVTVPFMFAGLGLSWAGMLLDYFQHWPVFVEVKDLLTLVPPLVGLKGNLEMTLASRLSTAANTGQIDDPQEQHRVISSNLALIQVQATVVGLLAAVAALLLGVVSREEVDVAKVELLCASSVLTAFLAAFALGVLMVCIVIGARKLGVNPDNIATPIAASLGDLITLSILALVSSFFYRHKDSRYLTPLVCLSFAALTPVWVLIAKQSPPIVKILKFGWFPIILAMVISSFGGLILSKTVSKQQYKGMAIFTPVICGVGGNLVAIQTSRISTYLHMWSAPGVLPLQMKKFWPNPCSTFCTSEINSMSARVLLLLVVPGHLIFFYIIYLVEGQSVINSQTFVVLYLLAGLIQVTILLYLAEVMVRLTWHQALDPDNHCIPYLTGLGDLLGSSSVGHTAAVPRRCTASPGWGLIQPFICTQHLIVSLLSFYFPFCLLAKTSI
UniProt Q96DW6: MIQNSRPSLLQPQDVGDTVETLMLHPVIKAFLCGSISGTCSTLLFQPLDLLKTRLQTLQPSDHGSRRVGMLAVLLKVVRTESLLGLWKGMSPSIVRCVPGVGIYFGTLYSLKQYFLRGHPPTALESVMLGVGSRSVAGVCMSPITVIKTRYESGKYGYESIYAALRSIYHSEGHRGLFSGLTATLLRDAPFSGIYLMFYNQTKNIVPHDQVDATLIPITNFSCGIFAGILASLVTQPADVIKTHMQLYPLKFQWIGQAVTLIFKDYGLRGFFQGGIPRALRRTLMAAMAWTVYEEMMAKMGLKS
UniProt Q6NXT4: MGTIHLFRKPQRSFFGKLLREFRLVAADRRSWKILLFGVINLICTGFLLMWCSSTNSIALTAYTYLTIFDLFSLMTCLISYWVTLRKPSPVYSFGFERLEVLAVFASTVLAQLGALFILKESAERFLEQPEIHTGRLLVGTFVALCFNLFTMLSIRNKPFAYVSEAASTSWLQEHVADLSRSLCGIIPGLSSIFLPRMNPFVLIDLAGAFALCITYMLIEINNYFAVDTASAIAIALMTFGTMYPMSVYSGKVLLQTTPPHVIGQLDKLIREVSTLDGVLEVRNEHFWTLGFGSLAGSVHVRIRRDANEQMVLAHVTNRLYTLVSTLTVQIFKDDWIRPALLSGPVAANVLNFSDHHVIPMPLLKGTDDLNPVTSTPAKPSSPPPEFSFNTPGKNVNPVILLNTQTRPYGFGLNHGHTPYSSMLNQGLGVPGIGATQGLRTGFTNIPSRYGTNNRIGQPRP
UniProt Q9BSK2: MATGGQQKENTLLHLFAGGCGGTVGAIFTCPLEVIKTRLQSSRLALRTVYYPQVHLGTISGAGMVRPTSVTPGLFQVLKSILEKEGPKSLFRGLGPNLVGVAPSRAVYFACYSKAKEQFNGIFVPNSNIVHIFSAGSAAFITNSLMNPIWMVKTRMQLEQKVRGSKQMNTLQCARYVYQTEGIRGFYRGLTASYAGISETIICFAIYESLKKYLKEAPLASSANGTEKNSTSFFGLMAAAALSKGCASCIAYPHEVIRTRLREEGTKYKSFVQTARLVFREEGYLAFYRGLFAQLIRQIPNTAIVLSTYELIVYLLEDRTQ
UniProt Q7Z2H8: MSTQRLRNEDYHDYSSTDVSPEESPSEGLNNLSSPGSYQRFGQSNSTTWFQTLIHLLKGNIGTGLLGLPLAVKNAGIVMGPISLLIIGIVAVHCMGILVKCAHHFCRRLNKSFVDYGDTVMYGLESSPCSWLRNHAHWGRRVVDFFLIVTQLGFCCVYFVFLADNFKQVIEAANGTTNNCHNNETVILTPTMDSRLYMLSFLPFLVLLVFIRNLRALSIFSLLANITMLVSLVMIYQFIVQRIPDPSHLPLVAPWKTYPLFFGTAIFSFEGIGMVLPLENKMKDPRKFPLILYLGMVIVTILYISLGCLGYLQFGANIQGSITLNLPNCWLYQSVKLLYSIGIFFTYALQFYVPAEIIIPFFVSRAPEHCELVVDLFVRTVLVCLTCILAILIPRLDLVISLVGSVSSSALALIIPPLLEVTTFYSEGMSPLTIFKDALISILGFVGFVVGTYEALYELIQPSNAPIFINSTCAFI
UniProt P31641: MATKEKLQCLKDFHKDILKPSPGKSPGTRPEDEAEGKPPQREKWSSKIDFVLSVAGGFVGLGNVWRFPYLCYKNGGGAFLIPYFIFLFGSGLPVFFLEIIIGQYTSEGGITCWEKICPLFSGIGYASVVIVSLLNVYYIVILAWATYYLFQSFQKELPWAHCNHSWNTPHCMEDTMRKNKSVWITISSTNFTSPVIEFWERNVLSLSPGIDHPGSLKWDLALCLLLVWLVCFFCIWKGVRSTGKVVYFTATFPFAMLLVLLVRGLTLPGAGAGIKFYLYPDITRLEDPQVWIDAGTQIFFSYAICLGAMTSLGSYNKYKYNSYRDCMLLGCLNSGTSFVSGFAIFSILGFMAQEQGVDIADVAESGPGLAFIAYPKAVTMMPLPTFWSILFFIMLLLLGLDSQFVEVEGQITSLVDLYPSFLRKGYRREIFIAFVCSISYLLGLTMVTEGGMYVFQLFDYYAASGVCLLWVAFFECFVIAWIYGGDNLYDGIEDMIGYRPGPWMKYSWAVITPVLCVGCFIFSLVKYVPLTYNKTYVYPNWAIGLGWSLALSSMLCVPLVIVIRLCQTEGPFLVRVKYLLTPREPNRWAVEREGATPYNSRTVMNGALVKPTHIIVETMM
UniProt P05141: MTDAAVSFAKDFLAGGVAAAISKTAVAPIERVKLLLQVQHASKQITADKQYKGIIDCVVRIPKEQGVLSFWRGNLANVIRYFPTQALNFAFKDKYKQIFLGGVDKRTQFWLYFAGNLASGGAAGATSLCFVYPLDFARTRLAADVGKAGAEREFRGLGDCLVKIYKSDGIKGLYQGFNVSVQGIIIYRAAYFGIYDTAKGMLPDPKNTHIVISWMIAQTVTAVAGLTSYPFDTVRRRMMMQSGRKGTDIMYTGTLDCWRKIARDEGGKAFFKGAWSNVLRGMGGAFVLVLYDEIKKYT
UniProt Q9BWU0: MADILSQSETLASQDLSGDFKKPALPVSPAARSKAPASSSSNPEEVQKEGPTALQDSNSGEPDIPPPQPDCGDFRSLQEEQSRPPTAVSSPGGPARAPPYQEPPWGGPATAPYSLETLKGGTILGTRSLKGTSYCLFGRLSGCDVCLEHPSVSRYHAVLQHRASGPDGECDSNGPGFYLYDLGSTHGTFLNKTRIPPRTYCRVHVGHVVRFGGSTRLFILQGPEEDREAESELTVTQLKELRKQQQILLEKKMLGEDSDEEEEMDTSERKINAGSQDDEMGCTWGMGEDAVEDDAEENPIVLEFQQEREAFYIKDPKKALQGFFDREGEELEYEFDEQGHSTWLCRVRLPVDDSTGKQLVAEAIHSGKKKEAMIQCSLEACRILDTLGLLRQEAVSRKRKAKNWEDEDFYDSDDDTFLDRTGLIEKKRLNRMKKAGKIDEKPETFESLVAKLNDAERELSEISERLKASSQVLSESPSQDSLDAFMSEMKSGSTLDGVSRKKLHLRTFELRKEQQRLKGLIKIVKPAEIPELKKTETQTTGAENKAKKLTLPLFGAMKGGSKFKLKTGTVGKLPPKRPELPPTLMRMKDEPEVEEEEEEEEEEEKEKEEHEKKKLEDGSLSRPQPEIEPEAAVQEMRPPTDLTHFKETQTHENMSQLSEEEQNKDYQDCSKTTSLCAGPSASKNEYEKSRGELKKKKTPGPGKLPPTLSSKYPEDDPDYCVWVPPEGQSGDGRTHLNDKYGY
UniProt A1A5C7: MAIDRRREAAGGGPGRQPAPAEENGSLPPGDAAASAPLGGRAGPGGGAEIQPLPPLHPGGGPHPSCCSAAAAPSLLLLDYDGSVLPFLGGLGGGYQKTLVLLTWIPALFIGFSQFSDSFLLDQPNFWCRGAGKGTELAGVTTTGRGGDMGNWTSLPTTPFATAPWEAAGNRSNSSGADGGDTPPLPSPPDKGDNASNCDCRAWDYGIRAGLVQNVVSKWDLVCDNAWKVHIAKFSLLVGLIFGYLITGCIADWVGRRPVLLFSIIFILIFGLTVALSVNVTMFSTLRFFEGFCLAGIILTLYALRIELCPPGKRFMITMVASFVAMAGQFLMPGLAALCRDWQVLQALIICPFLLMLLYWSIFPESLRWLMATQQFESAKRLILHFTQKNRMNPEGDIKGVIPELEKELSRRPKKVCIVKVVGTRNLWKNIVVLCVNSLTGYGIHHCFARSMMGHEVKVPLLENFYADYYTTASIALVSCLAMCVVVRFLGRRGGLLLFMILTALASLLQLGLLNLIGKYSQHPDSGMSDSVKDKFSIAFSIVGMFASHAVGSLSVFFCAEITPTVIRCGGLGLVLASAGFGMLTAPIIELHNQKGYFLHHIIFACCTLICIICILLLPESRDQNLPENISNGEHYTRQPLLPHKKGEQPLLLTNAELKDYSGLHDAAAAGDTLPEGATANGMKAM

Tests used:
Experiment in all cases: log2 fold change, soluble protein after heating vs DMSO (PISA); higher = thermal stabilisation; K562 lysate, 10 uM; active = over 0.2 and 3.5 SD of the protein, either way, in both replicates (recomputed)
[1] = compound: C1=CC=C(C=C1)[C@H](COC2=CC3=C(C=C2)NC(=O)N3)NC(=O)C4=CC=CN(C4=O)CC5=CC(=C(C=C5)F)F
Summary of the method: (§1)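 K562 pellets were dounce-homogenised in PBS pH 7.4 with 1 mM MgCl2, and the crude extract at 1 mg/mL protein was treated with 10 μM compound for 30 min. Aliquots were heated for 3 min across 48°C-58°C, pooled, and brought to 0.5% NP-40 at 4°C; soluble protein was the supernatant after 21,000xg for 90 min. Soluble protein was quantified by TMTpro 16plex LC-MS/MS with channel sums equalised, and reported as log2 fold change in thermal stability against DMSO controls, with values from duplicates.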

[2] = compound: CC1=C(SC2=C1C(=N[C@H](C3=NN=C(N32)C)CC(=O)N)C4=CC=C(C=C4)Cl)C
Summary of the method: as §1

[3] = compound: CC1=C2C(=CC=C1)N=C(N(C2=O)C3=CC=CC=C3C)CN4C=NC5=C(N=CN=C54)N
Summary of the method: as §1

[4] = compound: c1ccc([C@@H]2C[C@H]2NC2CCNCC2)cc1
Summary of the method: as §1

[5] = compound: Cc1sc2c(c1C)C(c1ccc(Cl)cc1)=N[C@@H](CC(=O)OC(C)(C)C)c1nnc(C)n1-2
Summary of the method: as §1

Measured: log2 fold change

SLC41A3 isoform 9 (UniProt Q96GZ6)
inactive: [1] 0.074 | [2] 0.281 | [3] 0.094 | [4] -0.257

SLC25A38 (UniProt Q96DW6)
inactive: [1] 0.099 | [2] 0 | [3] 0.013 | [5] -0.323 | [4] -0.047

SLC30A6 isoform 2 (UniProt Q6NXT4)
inactive: [1] 0.033 | [2] -0.046 | [3] 0.116 | [4] -0.059

SLC25A33 (UniProt Q9BSK2)
inactive: [1] -0.022 | [2] 0 | [3] 0.007 | [5] 0.015 | [4] -0.02

SLC36A1 (UniProt Q7Z2H8)
inactive: [1] 0.149 | [2] 0.172 | [3] 0.166 | [5] -0.054 | [4] -0.108

SLC6A6 (UniProt P31641)
inactive: [1] 0.028 | [2] -0.029 | [3] 0.026 | [5] -0.079 | [4] 0.027

SLC25A5 (UniProt P05141)
inactive: [1] -0.033 | [2] -0.003 | [3] -0.019 | [5] 0.062 | [4] 0.11

SLC4A1AP (UniProt Q9BWU0)
inactive: [1] 0.01 | [2] 0.036 | [3] 0.004 | [5] -0.032 | [4] -0.024

SLC22A23 (UniProt A1A5C7)
inactive: [1] 0.063 | [2] 0.032 | [3] 0.025 | [5] -0.083 | [4] -0.057
